{"source": "the supplement of paper PMC9135407", "tested_on": "primary human hepatic stellate cells (donor 1)", "assay": "percent Bodipy-positive cells; higher = more lipid droplet accumulation", "details": "48 h", "procedure": "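Primary lipid accumulation screen in primary human hepatic stellate cell myofibroblasts (donor 1, passage 8) in 384-well plates. 100 nL of library compound was pin-transferred into 30 µL medium in duplicate, and cells were treated for 48 h. The 'Scaled' score combines distance from plate baseline, toxicity and reproducibility penalties, and is normalised to nortriptyline (positive) and DMSO (negative) controls on each plate. A hit is defined as scaled >0.85 or among the top 3 wells per plate.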", "key": {"[1]": {"details": "library stock concentration: 10 mM"}, "[2]": {"details": "library stock concentration: 3.33 mM"}, "[3]": {"details": "library stock concentration: 1 mM"}, "[4]": {"details": "library stock concentration: 80 uM"}, "[5]": {"details": "library stock concentration: 400 uM"}, "[6]": {"details": "library stock concentration: 2 mM"}}, "note": "Where “and” joins values, the source holds several entries; their conditions need not be identical. Equal entries are not always repeated. Structures can show the parent of a compound that is named as a salt. ± gives the standard deviation of the averaged measurements. The list shows a part of the results. Baselines shift from plate to plate; read single values as rough.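 Culture-activated primary human stellate myofibroblasts, where regained lipid droplets signal inactivation. Value: share of Hoechst-counted cells above a per-plate Bodipy cutoff, in duplicate wells, with DMSO negative and nortriptyline positive controls on each plate. Hits: a control-normalized score above the plate's top-tenth-percentile nortriptyline wells, or one of a plate's three best wells. Final well concentrations are not given.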", "data": [{"molecule": "Cc1c(C2CCN(CCc3ccccc3)CC2)noc1-c1ccc(Cl)cc1", "note": "[L-741,742 hydrochloride]", "values": [{"measurement": "percent Bodipy-positive cells", "setting": "[1]", "result": "35.3 ± 3.5", "unit": "%"}]}, {"molecule": "O=C(O)c1ccc(-c2ccc3cc(O)c(C45CC6CC(CC(C6)C4)C5)cc3c2)cc1", "values": [{"measurement": "percent Bodipy-positive cells", "setting": "[1]", "result": "5.16 ± 1.4", "unit": "%"}]}, {"molecule": "CC(C)c1ccc(NC(=O)Cn2cnc3c2c(=O)n(C)c(=O)n3C)cc1", "values": [{"measurement": "percent Bodipy-positive cells", "setting": "[2]", "result": "10.4 ± 4.6", "unit": "%"}, {"measurement": "percent Bodipy-positive cells", "setting": "[1]", "result": "11.2 ± 3.6", "unit": "%"}]}, {"molecule": "C[C@H](NC(=O)/C(C#N)=C/c1cccc(Br)n1)c1ccccc1", "values": [{"measurement": "percent Bodipy-positive cells", "setting": "[1]", "result": 100, "unit": "%"}]}, {"molecule": "CCNC(=O)c1[nH]nc(-c2cc(Cl)c(O)cc2O)c1-c1ccc(OC)cc1", "values": [{"measurement": "percent Bodipy-positive cells", "setting": "[2]", "result": "81.3 ± 4.8", "unit": "%"}]}, {"molecule": "CC(C)(C)n1nc(Cc2cccc3ccccc23)c2c(N)ncnc21", "values": [{"measurement": "percent Bodipy-positive cells", "setting": "[3]", "result": "7.92 ± 0.9", "unit": "%"}]}, {"molecule": "CCNC(=O)Nc1ccc(-c2nc3c(c(N4CCOC[C@@H]4C)n2)CCN(C2COC2)C3)cc1", "values": [{"measurement": "percent Bodipy-positive cells", "setting": "[2]", "result": "21.1 ± 1.7", "unit": "%"}, {"measurement": "percent Bodipy-positive cells", "setting": "[1]", "result": "15.7 ± 0.52", "unit": "%"}]}, {"molecule": "CCCN(CCC)S(=O)(=O)c1ccc(C(=O)O)cc1", "note": "[Probenecid]", "values": [{"measurement": "percent Bodipy-positive cells", "result": "25.4 ± 5.5", "unit": "%"}, {"measurement": "percent Bodipy-positive cells", "setting": "[2]", "result": "15.1 ± 1.4", "unit": "%"}, {"measurement": "percent Bodipy-positive cells", "setting": "library stock concentration: 7 mM", "result": "9.65 ± 0.7", "unit": "%"}, {"measurement": "percent Bodipy-positive cells", "setting": "[1]", "result": "35.6% and 17.4%"}]}, {"molecule": "CCCN(CCC)S(=O)(=O)c1ccc(C(=O)O)cc1", "values": [{"measurement": "percent Bodipy-positive cells", "setting": "[1]", "result": "31.8 ± 8.1", "unit": "%"}]}, {"molecule": "CCN(CC)C(=O)c1cccnc1", "values": [{"measurement": "percent Bodipy-positive cells", "setting": "[1]", "result": "41.3 ± 4.7", "unit": "%"}]}, {"molecule": "O=c1[nH]c(=S)[nH]c(-c2ccccc2)c1Cc1c(O)ccc2ccccc12", "note": "[Cambinol]", "values": [{"measurement": "percent Bodipy-positive cells", "setting": "[1]", "result": "25.6 ± 7.6", "unit": "%"}]}, {"molecule": "CCCC/C=C/C=C/C=C/CCCCCCCC(=O)OC", "note": "[9(Z),11(E),13(E)-Octadecatrienoic Acid methyl ester]", "values": [{"measurement": "percent Bodipy-positive cells", "setting": "[3]", "result": "8.75 ± 0.56", "unit": "%"}]}, {"molecule": "C[C@]12CC[C@@H]3c4ccc(O)cc4CC[C@H]3[C@@H]1CC[C@@H]2O", "note": "[beta-Estradiol]", "values": [{"measurement": "percent Bodipy-positive cells", "setting": "[1]", "result": "71.8 ± 3.1", "unit": "%"}]}, {"molecule": "C[C@]12CC[C@@H]3c4ccc(O)cc4CC[C@H]3[C@@H]1CC[C@@H]2O", "values": [{"measurement": "percent Bodipy-positive cells", "setting": "[1]", "result": "24.9 ± 13", "unit": "%"}]}, {"molecule": "C[C@]12CC[C@@H]3c4ccc(O)cc4CC[C@H]3[C@@H]1CC[C@@H]2O", "note": "[Estradiol-17 beta]", "values": [{"measurement": "percent Bodipy-positive cells", "result": "54.4 ± 4.8", "unit": "%"}]}, {"molecule": "C[C@]12CC[C@@H]3c4ccc(O)cc4CC[C@H]3[C@@H]1CC[C@@H]2O", "note": "[Estradiol]", "values": [{"measurement": "percent Bodipy-positive cells", "setting": "[2]", "result": "12.4 ± 5.5", "unit": "%"}, {"measurement": "percent Bodipy-positive cells", "setting": "library stock concentration: 7.3 mM", "result": "13.8% and 8.37%"}, {"measurement": "percent Bodipy-positive cells", "setting": "[1]", "result": "13% and 5.39%"}, {"measurement": "percent Bodipy-positive cells", "setting": "library stock concentration: 18.4 mM", "result": "31.3 ± 0.12", "unit": "%"}]}, {"molecule": "CC(NC(=O)Cc1cc(F)cc(F)c1)C(=O)NC(C(=O)OC(C)(C)C)c1ccccc1", "note": "(stereo not given)", "values": [{"measurement": "percent Bodipy-positive cells", "setting": "[2]", "result": "9.94 ± 1.1", "unit": "%"}, {"measurement": "percent Bodipy-positive cells", "setting": "[1]", "result": "10.7 ± 1.6", "unit": "%"}]}, {"molecule": "CCCCCCCCCCCCCCCCOC[C@H](COP(=O)([O-])OCC[N+]1(C)CCCC1)OC(C)=O", "note": "[Pyrrolidino PAF C-16]", "values": [{"measurement": "percent Bodipy-positive cells", "setting": "[3]", "result": "12.7 ± 3.6", "unit": "%"}]}, {"molecule": "Cc1c(NC(=O)N2CCOCC2)ccc2c1c1ccccc1n2C(C)C", "values": [{"measurement": "percent Bodipy-positive cells", "setting": "[1]", "result": "17.6 ± 14", "unit": "%"}]}, {"molecule": "NC(Cc1cc(I)c(Oc2cc(I)c(O)c(I)c2)c(I)c1)C(=O)O", "note": "(stereo not given) [Thyroxine]", "values": [{"measurement": "percent Bodipy-positive cells", "setting": "[1]", "result": "20.7 ± 1.9", "unit": "%"}]}, {"molecule": "NC(Cc1cc(I)c(Oc2cc(I)c(O)c(I)c2)c(I)c1)C(=O)O", "note": "(stereo not given) [Thyroxine (L)]", "values": [{"measurement": "percent Bodipy-positive cells", "result": "18.2 ± 0.31", "unit": "%"}]}, {"molecule": "CN(C)CC/C=C1/c2ccccc2Sc2ccc(Cl)cc21", "note": "[Chlorprothixene hydrochloride]", "values": [{"measurement": "percent Bodipy-positive cells", "setting": "library stock concentration: 5.7 mM", "result": "81.69 ± 0.15", "unit": "%"}, {"measurement": "percent Bodipy-positive cells", "setting": "[1]", "result": "98.5% and 78.5%"}]}, {"molecule": "CN(C)CC/C=C1/c2ccccc2Sc2ccc(Cl)cc21", "note": "[Chlorprothixene]", "values": [{"measurement": "percent Bodipy-positive cells", "setting": "[2]", "result": "44.9 ± 11", "unit": "%"}]}, {"molecule": "N.N.N.N.N.N.N.N.N.N.N.N.N.N.O.O.[Cl-].[Cl-].[Cl-].[Cl-].[Cl-].[Cl-].[Ru+4].[Ru+5].[Ru+5]", "note": "[Ruthenium red]", "values": [{"measurement": "percent Bodipy-positive cells", "setting": "[1]", "result": "13 ± 2.6", "unit": "%"}]}, {"molecule": "CN1CCC(c2c(O)cc(O)c3c(=O)cc(-c4ccccc4Cl)oc23)C1CO", "note": "(stereo not given) [Riviciclib]", "values": [{"measurement": "percent Bodipy-positive cells", "setting": "[4]", "result": "24.7 ± 6.7", "unit": "%"}, {"measurement": "percent Bodipy-positive cells", "setting": "[5]", "result": "48.9 ± 7.4", "unit": "%"}, {"measurement": "percent Bodipy-positive cells", "setting": "[6]", "result": "32.9 ± 5.8", "unit": "%"}, {"measurement": "percent Bodipy-positive cells", "setting": "[1]", "result": "26.2 ± 3.6", "unit": "%"}]}, {"molecule": "CC(=O)[C@H]1CC[C@H]2[C@@H]3CCC4=CC(=O)CC[C@]4(C)[C@H]3CC[C@]12C", "values": [{"measurement": "percent Bodipy-positive cells", "setting": "[1]", "result": "46.6 ± 6.5", "unit": "%"}]}, {"molecule": "CC(=O)[C@H]1CC[C@H]2[C@@H]3CCC4=CC(=O)CC[C@]4(C)[C@H]3CC[C@]12C", "note": "[Progesterone]", "values": [{"measurement": "percent Bodipy-positive cells", "result": "51.2 ± 4.9", "unit": "%"}, {"measurement": "percent Bodipy-positive cells", "setting": "[2]", "result": "11.9 ± 0.86", "unit": "%"}, {"measurement": "percent Bodipy-positive cells", "setting": "library stock concentration: 6.4 mM", "result": "44.4% and 31%"}]}, {"molecule": "Cn1cc(CNCC2CCN(c3ncc(C(=O)NO)cn3)CC2)c2ccccc21", "values": [{"measurement": "percent Bodipy-positive cells", "setting": "[2]", "result": "73.6 ± 8.9", "unit": "%"}]}, {"molecule": "CC(C)(C)OC(=O)Nc1cccc2[nH]ccc12", "note": "[(1H-Indol-4-yl)-Carbamic Acid tert-butyl ester]", "values": [{"measurement": "percent Bodipy-positive cells", "setting": "[3]", "result": "8.92 ± 1.7", "unit": "%"}]}, {"molecule": "CCCCCCC(Sc1nc(Cl)cc(NCc2ccc(-c3ccccc3)cc2)n1)C(=O)O", "note": "(stereo not given)", "values": [{"measurement": "percent Bodipy-positive cells", "setting": "[3]", "result": "20.1 ± 6.7", "unit": "%"}]}, {"molecule": "CN1CCCC(CC2c3ccccc3Sc3ccccc32)C1.Cl.O", "note": "(stereo not given) [Metixene hydrochloride]", "values": [{"measurement": "percent Bodipy-positive cells", "result": "95.486 ± 0.023", "unit": "%"}]}, {"molecule": "COc1ccc2[nH]c([S+]([O-])Cc3ncc(C)c(OC)c3C)nc2n1", "note": "(stereo not given) [Tenatoprazole]", "values": [{"measurement": "percent Bodipy-positive cells", "setting": "library stock concentration: 5.8 mM", "result": "12.8 ± 0.66", "unit": "%"}]}, {"molecule": "CCOC(=O)CCNc1cc(N2CCc3ccccc3CC2)nc(-c2ccccn2)n1", "values": [{"measurement": "percent Bodipy-positive cells", "setting": "[4]", "result": "39 ± 2.8", "unit": "%"}, {"measurement": "percent Bodipy-positive cells", "setting": "[5]", "result": "30.7 ± 1.2", "unit": "%"}, {"measurement": "percent Bodipy-positive cells", "setting": "[6]", "result": "39.6 ± 8.2", "unit": "%"}, {"measurement": "percent Bodipy-positive cells", "setting": "[2]", "result": "9.59 ± 6.8", "unit": "%"}, {"measurement": "percent Bodipy-positive cells", "setting": "[1]", "result": "45.5% and 37.7%"}]}, {"molecule": "CCCCCCCC(=O)OC[C@H](CO)OC(=O)CCCCCCC", "note": "[1,2-Dioctanoyl-SN-glycerol]", "values": [{"measurement": "percent Bodipy-positive cells", "setting": "[3]", "result": "6.11 ± 2.9", "unit": "%"}]}, {"molecule": "CCCCCCCC(=O)OC[C@H](CO)OC(=O)CCCCCCC", "note": "[1,2-Dioctanoyl-sn-glycerol]", "values": [{"measurement": "percent Bodipy-positive cells", "setting": "[3]", "result": "7.09 ± 0.99", "unit": "%"}]}, {"molecule": "CN(C)CCOC(c1ccccc1)c1ccccc1", "note": "[Diphenhydramine HCl]", "values": [{"measurement": "percent Bodipy-positive cells", "setting": "[2]", "result": "18.4 ± 4.2", "unit": "%"}, {"measurement": "percent Bodipy-positive cells", "setting": "library stock concentration: 7.8 mM", "result": "25.9 ± 4.3", "unit": "%"}, {"measurement": "percent Bodipy-positive cells", "setting": "[1]", "result": "36.6 ± 2.6", "unit": "%"}]}, {"molecule": "CN(C)CCOC(c1ccccc1)c1ccccc1", "note": "[Diphenhydramine hydrochloride]", "values": [{"measurement": "percent Bodipy-positive cells", "result": "60.3 ± 7.4", "unit": "%"}, {"measurement": "percent Bodipy-positive cells", "setting": "library stock concentration: 6.9 mM", "result": "27.3 ± 13", "unit": "%"}]}, {"molecule": "CN(C)CCOC(c1ccccc1)c1ccccc1", "values": [{"measurement": "percent Bodipy-positive cells", "setting": "[1]", "result": "47.2 ± 5.1", "unit": "%"}]}]}
